The values that follow come from PubChem BioAssay AID493014 (National Center for Advancing Translational Sciences (NCATS), 2011).

The experiment in a line: qHTS Assay to Find Inhibitors of Chronic Active B-Cell Receptor Signaling. Particulars: ABC-DLBCL IkBa-CBG/CBR reporter, luminescence ratio (green luciferase fused to IkBa over red control in TMD8 lymphoma cells), 4 h. The method in brief:
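Compounds up to 46 uM were incubated four hours with TMD8 cells whose green CBG68 luciferase is fused to IkappaBalpha; red CBR luminescence normalised the signal, and concentration-effect curves were fitted to fusion, red and ratio data.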
On the technique in general: Quantitative high-throughput screening tests each substance at several concentrations.

[1] abbreviates: measured here: CBR red luminescence, cell number.

This is one part of the list. These are further read-outs of the screen, such as a control signal, another cell line or another target. No call is given for them. Compounds called inactive in the main read-out are mostly missing here. The note in brackets gives the kind of curve behind each potency; many fits are weak.

As to `O=C(NCc1nnnn1-c1ccc(F)c(F)c1)C(=O)c1c[nH]c2ccccc12`, the AC50 (as a rule, the concentration at which the activity in the assay is half-maximal) under setting [1] was 13 µM [falling, partial curve, poor fit].

Take `O=C(CN1CCN(c2ccccc2)CC1)NC(=O)NCc1ccccc1`: the AC50 is 6.51 µM [falling, single point] under setting [1] and 7.31 µM [rising, partial curve, poor fit] (measured here: IkBa-CBG green luminescence).

As for `Cc1cc(C)n2cc(CSCc3ccco3)nc2n1`, under setting [1], the AC50 is 7.31 µM [rising, partial curve, poor fit].

Turning to `COc1ccc(C(=O)COC(=O)Cn2[nH]c(=O)c3ccccc3c2=O)c(OC)c1`, the AC50 under setting [1] is 1.64 µM [rising, full curve, poor fit].

Turning to `C#CCOCCOCCOCCNc1nc(N2CCN(C(=O)[C@H]([C@@H](C)CC)n3cc([C@@H](N)CO)nn3)CC2)nc(N2CCN(C(=O)[C@H](CCCCN)n3cc([C@@H](N)CC(C)C)nn3)CC2)n1`, the half-maximal activity concentration (AC50) under setting [1] is 1.78 µM [rising, full curve, poor fit].

As for `O=S(=O)(CCc1nc2ccccc2[nH]1)c1ccc(Cl)cc1`, the AC50 under setting [1] was 3.66 µM [rising, full curve].

On to `CN(C)CCCNC(=O)c1cc2sc3ccccc3c2s1`, for which the AC50 under setting [1] is 35.5 µM [falling, single point].

Turning to `Cc1ccn(C(=O)c2ccc(NC(=O)C3CC3)cc2)n1`, the AC50 under setting [1] was 2.24 µM [rising, partial curve, poor fit].

As to `C[C@]12c3[nH]c4ccc(Cl)cc4c3CCN1C(=O)[C@@H](CC(=O)NCCN1CCOCC1)C[C@@H]2C(=O)N1CCOCC1`, the AC50 under setting [1] is 16.4 µM [rising, partial curve, poor fit].

For the compound `COc1ccc(C)cc1NC(=O)c1cc2ccccc2o1`, the AC50 under setting [1] was 3.16 µM [rising, partial curve, poor fit].

`O=C(c1cc(=O)[nH]c2ccccc12)N1CCN(c2cccc(C(F)(F)F)c2)CC1`: the AC50 under setting [1] was 3.98 µM [rising, single point].

Regarding `COc1ccc(NC(=O)CSc2nnc(-c3ccccc3C)n2N)cc1`, under setting [1], the AC50 is 5.62 µM [rising, single point].

Take `Cc1ccn2c(=O)nc(SCC(=O)NCc3ccccc3Cl)nc2c1`: under setting [1], the AC50 is 25.9 µM [falling, single point].

Consider `O=C(N[C@@H](Cc1ccccc1)C(=O)OCC(=O)N1CCOCC1)c1cccs1`, for which the AC50 under setting [1] is 20 µM [rising, single point].

With `Cc1cccc2cc(CN(Cc3ccco3)C(c3nnnn3CCc3ccccc3)C(C)C)c(=O)[nH]c12` (configuration not stated), under setting [1], the AC50 was 6.31 µM [falling, partial curve].

Turning to `CCC(=O)Nc1nc2ccc(S(C)(=O)=O)cc2s1`, the AC50 under setting [1] is 23.1 µM [rising, single point].
